Patent US20180346555A1
These are yes or no findings as the source states them, for the method shown.

What was measured:
Experiment in all cases: SPR Biacore 4000, captured mAb, 25C
[1] = target: White Oak (Que a 1) (White Oak)
[2] = target: Celery (Api g 2) (Celery)
[3] = target: Carrot (Dau c 1.2) (Carrot)

Measured: binding

B1: H4H16987P (antibody, human IgG4 S228P, kappa, V domains shown)
VH: EVQLVESGGGLVQPGGSLRLSCAASGFTVSSNSMSWVRQAPGEGLEWVSVIFSGGITYYSDSVKGRFTISRHNSKNTLYLQMNSLRTEDTAVYYCARHSNWNFDAFDIWGQGTMVTVSS
VL: DIQMTQSPSSLSASVGDRVTITCRASQSFDTYLNWYQQKPGKAPNLLIYATSSLQSGVPSRFSGSGSGTDFTLTISSLQPEDFGTYYCQQSYSIPYTFGQGTKLEIKR
no binding (tested: 100 nM): all assays above

B2: H4H16991P (antibody, human IgG4, V domains shown)
VH: QVQLVQSGAEVRKPGASVKVSCKASGYTFTGYYLHWVRQAPGQGLEWMGLINPNTGGTNFAQKFQGRVTMTRDSSISAAYMELSRLRSDDTAVYYCARQHWNRYFDNWGQGTLVTVSS
VL: DIQMTQSPSTLSASVGDRVTITCRASQSVGNWLAWYQQKPGKAPKLLIQEASSIESGVPSRFSGSGSGTEFTLIVSSLQPDDFATYYCQQYNSYSWTFGHGTKVEIK
no binding (tested: 100 nM): all assays above

B3: H4H17001P (antibody, human IgG4, V domains shown)
VH: QVQLVESGGGLVKPGGSLRLSCAASGFTFSDYYMNWIRQAPGKGLEWISLISSSGSAIYYSDSVKGRFTISRDNARKSLYLQVNSLRAEDTAVYYCARDRGEWALGAYYYGLDVWGQGTTVTVSS
VL: DIVMTQSPLSLPVTPGEPASISCRSSQSLLHSDGYNYLDWYLQKSGQSPQLLIYLGSNRASGVPDRFSGSGSGTDFTLKISRMEAEDVGVYYCMQALQTPYTFGQGTKLEIK
no binding (tested: 100 nM): all assays above

B4: H4H17015P (antibody, human IgG4, V domains shown)
VH: QVQLQESGPGLVKPSQTLSLTCTVSGGSISSADHYWSWIRQQPGKGLEWIGYISYRGTTYYNPTLESRVSISVDTFKNQFSLMLHSVTVADTAVYYCAKVLQGLVRFRDYGFDVWGQGTTVTVSS
VL: DIQLTQSPPFLSASVGDRVTITCWASQDISSYLAWYQQNPGKSPKLLIYDAFTLHTGVPSRFSGSGSGTEFTLTISSLQPEDFATFYCQHLYSFPFTFGPGTKVDIK
no binding (tested: 100 nM): all assays above

B5: H4H17027P (antibody, human IgG4, V domains shown)
VH: EVQLVESGGGLVQPGGSLRLSCAASGFTFRNYAMHWVRQAPGEGLEWVAAIYRNSDSIDYADSVKGRFTISRDNAKNSLYLQMNSLKTEDTALYYCAKDEGFLEYFDSWGQGTLVTVSS
VL: EIVLTQSPGTLSLSPGERASLSCRASQSVSSSFLAWYQQKPGQAPRLLIYGVSSRFIGIPDRFSGGGSGTDFTLTITRLEPEDFAVYYCQQYGRSPWTFGQGTKVEIK
no binding (tested: 100 nM): all assays above

B6: H4H17028P (antibody, human IgG4, V domains shown)
VH: QVQLVESGGGVVQPGRSLRLSCAASGFTFSRYAIHWVRQAPGKGLEWVAVISYDGDDKYYGDSVKGRFTISRDNSKTMVYLHMNSLRTEDTAVYYCAKDGYSLYGKDYFDYWGQGTLVTVSS
VL: EIVLTQSPGTLPLSPGERATLSCRASQSITNSYLAWYQQKPDQAPRLLIYGASSRATGIPDRFSGSESGTDFTLTISRLEPEDFAVYYCQQYVRSPWTFGQGTKVEIK
no binding (tested: 100 nM): all assays above

B7: H4H17031P (antibody, human IgG4, V domains shown)
VH: QVQLQQWGAGLLKPSETLSLTCVVYGESFGNYHWNWIRQSPGKRLEWIGEINQNGHTNYNPSLKSRVTISVDTSKIQFSLRLNSVTAADTAVYFCARGHNYVNSYFGLDVWGQGTTVTVSS
VL: EIVMTQSPATLSVSPGERATLSCRTSQSVSISLAWYQRKPGQAPRLLIFGSSTRATGVPARFSGSGSGTEFTLTISSLQSEDFAVYYCQQYNNWPYTFGQGTKLEIK
no binding (tested: 100 nM): all assays above

B8: H4H17033P (antibody, human IgG4, V domains shown)
VH: QVQLVQSGAEVKKPGASVKVSCKASGYTFAAHYMHWVRQAPGQGLEWMGWINTYTGGTNYGQKFQGRVTMTRDTSITTAYMELSRLRSDDTAVYYCARDRRNWNFVFEYWGQGTLVTVSS
VL: DIQMTQSPSSLSASVGDRVTISCRASQNIKNYLNWYQQKPGKAPKLLIYEASNLQSGAPSRFSGSGSGTDFTLTISSLEPEDFATYYCQQSFSIPWTFGQGTKVEIK
no binding (tested: 100 nM): all assays above

B9: H4H16946P (antibody, human IgG4, V domains shown)
VH: EVQLVESGGGLVQPGGSLRLSCVASGFTFSNYDMNWVRQAPGEGLEWISYISYSDHNIYYIDSVKGRFTISRDNAKNSLYLQMNSLRAEDTAIYYCAREALASSSFDYWGQGTLVTVSS
VL: EIVMTQSPATLSVSPGERVTLSCRASQSVSGNLAWYQQKPGQAPRLLIYSASTGATGVPARFSGSGSGTEFTLTISSLQSEDFALYYCQQYNKWPRTIGQGTKVEIK
no binding (tested: 100 nM): all assays above

B10: H4H16950P (antibody, human IgG4, V domains shown)
VH: QVQLVQSGAEVKKPGASVKVSCKTSGYTFTNYGITWVRQAPGQGLEWMGWISAYNGNTNYAQNVQGRVTMTTDTSTSTAYMEVRSLRSDDTAVYYCARRSSMLHFQHWGQGTLVTVSS
VL: DIVMTQSPDSLAVSLGERATINCKSSQHVLYDSSNENYLAWFQQKPGQPPKLLIYWASTRESGVPDRFSGSGSGTDFTLTISSLQAEDVAVYYCQQYSSAPYTFGQGTKLEIK
no binding (tested: 100 nM): all assays above

B11: H4H16960P (antibody, human IgG4, V domains shown)
VH: QLQLQESGPGLVRPSETLSLTCTVSGGSISSSNYWWGWIRQPPGKGLEWIGSIYYSGITYYNPSLKSRVTISADTSKDQFSLKLRSVTAADTAVYYCAKLEWLRLDFWGQGTTVTVSS
VL: DIQMTQSPSSVSASVGDRVTITCRASQGISSWLVWYQQKPGKVPKLLIYAASSLQSGVPLRFSGSGSGTDFTLTISSLQPEDFATYYCQQAKSFPLTFGQGTRLEIK
no binding (tested: 100 nM): all assays above
